In the supplement of paper PMC10331698:
± gives the standard deviation of the averaged measurements. Most entries show no effect beyond the scatter of the controls.

What was measured:
Experiment in all cases: level (log10 ratio to DMSO vehicle control); higher = higher biomarker level / cell amount than vehicle control
[1] = compound: OCC(F)(F)C(F)(F)C(F)(F)C(F)(F)C(F)(F)C(F)(F)C(F)(F)C(F)(F)C(F)(F)C(F)(F)C(F)(F)F [11:1 Fluorotelomer alcohol]; details: in DMSO
Description: (§1)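 BioMAP Diversity Plus panel of 12 human primary cell co-culture systems (3C, 4H, LPS, SAg, BT, BF4T, BE3C, CASM3C, HDF3CGF, KF3CT, MyoF, Mphg). Compounds were added 1 h before stimulation and left for 24 h (MyoF 48 h; BT 72 h for soluble read-outs or 6 d for IgG). Biomarkers were read by ELISA, cytotoxicity by SRB, PBMC viability and proliferation by Alamar Blue. Each well value was divided by the mean of 8 DMSO control wells on the same plate and log10 transformed; duplicate blinded samples were tested at 4 concentrations.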

[2] = compound: C=C(C)C(=O)OCC(F)(F)C(F)(F)C(F)(F)F [2,2,3,3,4,4,4-Heptafluorobutyl methacrylate]; details: 2200 nM; in DMSO
Description: as §1

[3] = compound: O=C(O)C(F)(F)OC(F)(F)C(F)(F)OC(F)(F)C(=O)O [Perfluoro-3,6-dioxaoctane-1,8-dioic acid]; details: 2200 nM; in DMSO
Description: as §1

[4] = compound: FC(F)C(F)(F)COCC1CO1 [((2,2,3,3-Tetrafluoropropoxy)methyl)oxirane]; details: 2200 nM; in DMSO
Description: as §1

[5] = compound: O=S(=O)(Cl)C(F)(F)C(F)(F)C(F)(F)C(F)(F)C(F)(F)C(F)(F)C(F)(F)C(F)(F)F [Perfluoro-1-octanesulfonyl chloride]; details: 2200 nM; in DMSO
Description: as §1

Perfluoroundecanoic acid = compound: O=C(O)C(F)(F)C(F)(F)C(F)(F)C(F)(F)C(F)(F)C(F)(F)C(F)(F)C(F)(F)C(F)(F)C(F)(F)F [Perfluoroundecanoic acid]; details: in DMSO
Description: as §1

[6] = compound: OCCC(F)(F)C(F)(F)C(F)(F)C(F)(F)C(F)(F)C(F)(F)C(F)(F)C(F)(F)F [8:2 Fluorotelomer alcohol]; details: 2200 nM; in DMSO
Description: as §1

[7] = compound: O=C(O)C(F)(F)OC(F)(F)C(F)(F)OC(F)(F)C(F)(F)C(F)(F)C(F)(F)F [Perfluoro-3,6-dioxadecanoic acid]; details: 2200 nM; in DMSO
Description: as §1

[8] = compound: O=C(O)C=CC(F)(C(F)(F)F)C(F)(F)F [3-(Perfluoroisopropyl)-2-propenoic acid]; details: in DMSO
Description: as §1

[9] = compound: O=C(O)C(F)(F)C(F)(F)C(F)(F)C(F)(F)C(F)(F)C(F)(F)C(F)(F)C(F)F [9-H-Perfluorononanoic acid]; details: 2200 nM; in DMSO
Description: as §1

[10] = compound: FC(F)(F)C(F)(F)C(F)(F)C(F)(F)C(F)(F)C(F)(F)C(F)(F)CCI [1-Iodo-1H,1H,2H,2H-perfluorononane]; details: in DMSO
Description: as §1

Perfluoropropanoic acid = compound: O=C(O)C(F)(F)C(F)(F)F [Perfluoropropanoic acid]; details: 2200 nM; in DMSO
Description: as §1

Perfluorooctanamide = compound: NC(=O)C(F)(F)C(F)(F)C(F)(F)C(F)(F)C(F)(F)C(F)(F)C(F)(F)F [Perfluorooctanamide]; details: 2200 nM; in DMSO
Description: as §1

[11] = compound: O=C(O)C(F)(F)C(F)(F)OC(F)(F)F [Perfluoro-3-methoxypropanoic acid]; details: 2200 nM; in DMSO
Description: as §1

[12] = compound: C=CC(=O)OCC(F)(F)C(F)(F)C(F)(F)C(F)(F)COC(=O)C=C [1H,1H,6H,6H-Perfluorohexane-1,6-diol diacrylate]; details: 2200 nM; in DMSO
Description: as §1

[13] = compound: O=P(O)(O)CCC(F)(F)C(F)(F)C(F)(F)C(F)(F)C(F)(F)C(F)(F)C(F)(F)C(F)(F)F [((Perfluorooctyl)ethyl)phosphonic acid]; details: 2200 nM; in DMSO
Description: as §1

Perfluorobutanoic acid = compound: O=C(O)C(F)(F)C(F)(F)C(F)(F)F [Perfluorobutanoic acid]; details: 2200 nM; in DMSO
Description: as §1

[14] = compound: FC(F)(F)C(F)(F)C(F)(F)C(F)(F)C(F)(F)C(F)(F)C(F)(F)I [1-Iodopentadecafluoroheptane]; details: in DMSO
Description: as §1

| Test System | level (log10) ([1]; 370 nM) | level (log10) ([1]; 1100 nM) | level (log10) ([1]; 3300 nM) | level (log10) ([1]; 10000 nM) | level (log10) [2] | level (log10) [3] | level (log10) [4] | level (log10) [5] | level (log10) (Perfluoroundecanoic acid; 740 nM) | level (log10) (Perfluoroundecanoic acid; 2200 nM) | level (log10) [6] | level (log10) [7] | level (log10) ([8]; 2200 nM) | level (log10) ([8]; 6700 nM) | level (log10) ([8]; 20000 nM) | level (log10) ([8]; 60000 nM) | level (log10) [9] | level (log10) ([10]; 740 nM) | level (log10) ([10]; 2200 nM) | level (log10) ([10]; 6700 nM) | level (log10) ([10]; 20000 nM) | level (log10) (Perfluoropropanoic acid) | level (log10) (Perfluorooctanamide) | level (log10) [11] | level (log10) [12] | level (log10) [13] | level (log10) (Perfluorobutanoic acid) | level (log10) ([14]; 740 nM) | level (log10) ([14]; 2200 nM) | level (log10) ([14]; 6700 nM) | level (log10) ([14]; 20000 nM) |
| --- | --- | --- | --- | --- | --- | --- | --- | --- | --- | --- | --- | --- | --- | --- | --- | --- | --- | --- | --- | --- | --- | --- | --- | --- | --- | --- | --- | --- | --- | --- | --- |
| BT:sIL-17F | 0.268 ± 0.0071 | 0.308 ± 0.0078 | 0.319 ± 0.096 | 0.33 ± 0.077 | -0.014 ± 0.13 | -0.129 ± 0.071 | -0.018 ± 0.079 | -0.032 ± 0.0057 | -0.0335 ± 0.12 | -0.136 ± 0.051 | 0.012 ± 0.0099 | 0.0035 ± 0.06 | -0.17 ± 0.13 | -0.088 ± 0.081 | -0.014 ± 0.054 | 0.0025 ± 0.043 | -0.008 ± 0.0071 | 0.017 ± 0.03 | 0.058 ± 0.052 | 0.062 ± 0.023 | 0.0585 ± 0.011 | -0.0555 ± 0.12 | -0.009 ± 0.037 | -0.133 ± 0.016 | -0.322 ± 0.23 | -0.0725 ± 0.042 | -0.083 ± 0.081 | -0.123 ± 0.0078 | 0.0055 ± 0.019 | -0.0435 ± 0.049 | -0.0545 ± 0.16 |
| BT:sTNF-alpha | -0.057 ± 0.044 | -0.057 ± 0.031 | -0.127 ± 0.0064 | -0.0825 ± 0.079 | -0.024 ± 0.13 | -0.0345 ± 0.056 | 0.121 ± 0.047 | 0.0365 ± 0.039 | -0.0235 ± 0.015 | 0.137 ± 0.032 | 0.0325 ± 0.15 | 0.0525 ± 0.05 | -0.0155 ± 0.16 | -0.0275 ± 0.04 | -0.149 ± 0.1 | -0.028 ± 0.03 | -0.009 ± 0.064 | 0.153 ± 0.028 | -0.001 ± 0.041 | 0.018 ± 0.054 | 0.063 ± 0.12 | 0.0605 ± 0.0092 | 0.0005 ± 0.046 | 0.063 ± 0.21 | -0.328 ± 0.02 | -0.008 ± 0.2 | 0.0855 ± 0.12 | -0.04 ± 0.1 | 0.049 ± 0.11 | -0.051 ± 0.018 | 0.093 ± 0.17 |
| CASM3C:CCL2/MCP-1 | -0.007 ± 0.0042 | -0.01 ± 0.024 | -0.0055 ± 0.012 | 0.012 ± 0.025 | -0.0015 ± 0.059 | 0.0275 ± 0.066 | 0.027 ± 0.02 | -0.01 ± 0.037 | 0.001 ± 0.021 | 0.0065 ± 0.0092 | 0.005 ± 0.045 | 0.0255 ± 0.047 | 0.026 ± 0.067 | 0.007 ± 0.017 | -0.0055 ± 0.011 | 0.023 ± 0.044 | 0.008 ± 0.021 | 0.015 ± 0.023 | -0.0005 ± 0.0021 | 0.003 ± 0.0099 | 0.02 ± 0.018 | 0.001 ± 0.0014 | 0 | 0.0295 ± 0.077 | -0.0085 ± 0.0035 | 0.0185 ± 0.053 | -0.0245 ± 0.0021 | 0.006 ± 0.027 | -0.0055 ± 0.0092 | -0.01 ± 0.0042 | 0.005 ± 0.018 |
| CASM3C:CD87/uPAR | 0.0125 ± 0.011 | 0.0055 ± 0.025 | -0.004 ± 0.021 | 0.0085 ± 0.032 | -0.021 ± 0.014 | -0.0025 ± 0.011 | 0.0025 ± 0.033 | -0.006 ± 0.03 | -0.0215 ± 0.015 | -0.045 ± 0.0085 | -0.0365 ± 0.044 | -0.0495 ± 0.0078 | -0.008 ± 0.013 | -0.006 ± 0.0057 | -0.0135 ± 0.012 | -0.015 ± 0.0042 | 0.001 ± 0.0014 | -0.0005 ± 0.016 | -0.011 ± 0.038 | -0.0105 ± 0.028 | -0.013 ± 0.028 | 0.021 ± 0.0099 | -0.012 ± 0.0014 | -0.0015 ± 0.016 | 0.015 ± 0.023 | 0.003 ± 0.0042 | -0.0135 ± 0.0021 | -0.0035 ± 0.00071 | -0.0365 ± 0.03 | -0.019 ± 0.031 | -0.0195 ± 0.018 |
| CASM3C:CD106/VCAM-1 | -0.012 ± 0.0071 | -0.004 ± 0.024 | 0 ± 0.023 | -0.0105 ± 0.019 | 0.0125 ± 0.011 | 0.022 ± 0.071 | 0.0095 ± 0.019 | 0.001 ± 0.024 | -0.0215 ± 0.021 | -0.047 ± 0.027 | -0.036 ± 0.028 | 0.0185 ± 0.0021 | 0.007 ± 0.034 | -0.0315 ± 0.013 | -0.015 ± 0.0014 | -0.0045 ± 0.071 | -0.021 ± 0.021 | -0.0035 ± 0.005 | -0.008 ± 0.014 | -0.019 ± 0.0099 | -0.0645 ± 0.012 | -0.001 ± 0.038 | -0.0205 ± 0.0078 | 0.007 ± 0.054 | -0.0285 ± 0.025 | 0.0095 ± 0.09 | -0.022 ± 0.023 | 0.01 ± 0.035 | -0.023 ± 0.013 | -0.0125 ± 0.005 | -0.019 ± 0.034 |
| CASM3C:CD141/Thrombomodulin | 0 ± 0.013 | -0.0155 ± 0.012 | -0.012 ± 0.025 | -0.0155 ± 0.005 | -0.009 ± 0.033 | 0.01 ± 0.055 | -0.0065 ± 0.056 | 0.001 ± 0.0099 | -0.042 ± 0.065 | -0.059 ± 0.072 | 0.0125 ± 0.015 | -0.0025 ± 0.049 | 0.0055 ± 0.032 | -0.0215 ± 0.011 | -0.001 ± 0.023 | 0.0075 ± 0.033 | -0.023 ± 0.0057 | -0.008 ± 0.0099 | 0.0025 ± 0.018 | 0.0135 ± 0.0035 | 0.0065 ± 0.03 | -0.038 ± 0.023 | 0.014 ± 0.013 | 0.017 ± 0.051 | 0.092 ± 0.0085 | 0.004 ± 0.057 | 0.0145 ± 0.015 | -0.025 ± 0.04 | -0.06 ± 0.0028 | -0.0595 ± 0.021 | -0.0445 ± 0.021 |
| CASM3C:CD142/Tissue Factor | 0.012 ± 0.0085 | -0.013 ± 0.02 | -0.0225 ± 0.016 | -0.038 ± 0.02 | -0.001 ± 0.02 | 0.009 ± 0.045 | 0.023 ± 0.018 | -0.0095 ± 0.049 | -0.034 ± 0.044 | -0.069 ± 0.011 | -0.012 ± 0.04 | 0.0135 ± 0.021 | 0.0015 ± 0.039 | -0.037 ± 0.028 | -0.0315 ± 0.053 | -0.01 ± 0.067 | -0.0375 ± 0.022 | -0.0165 ± 0.023 | 0.012 ± 0.031 | 0.0155 ± 0.049 | -0.055 ± 0.0028 | 0.0305 ± 0.11 | -0.0035 ± 0.032 | -0.0075 ± 0.05 | -0.0075 ± 0.039 | 0.0045 ± 0.11 | -0.0205 ± 0.00071 | 0.024 ± 0.072 | 0.004 ± 0.013 | -0.0185 ± 0.016 | -0.043 ± 0.024 |
